# Assay results: article PMC11943097, “Phytochemical Characterization and Anticancer Activity of Clerodendrum chinense Leaf Extract Against Breast and Cervical Cancer Cells” (International Journal of Molecular Sciences, 2025)
# Tested on: HeLa cells
# Assay: MTT cell viability assay, HeLa cells
# Type: cell-based
# Procedure: MCF-7, HeLa, and RAW264.7 cells were cultured in DMEM supplemented with 10% FBS and 1% penicillin/streptomycin. Cell culture was maintained at 37 °C in a 5% CO2 incubator.
# The assessment of cell viability was performed using an MTT assay to assess the cytotoxic effects of CCL on MCF-7, Hela, and RAW264.7 cells. Initially, MCF-7, HeLa, and RAW264.7 cells were seeded onto 96-well plates at a density of 2 × 10^4 cells/mL. Following a 24-h incubation period, the culture medium was replaced with a serum-free medium containing specified concentrations of CCL, verbascoside, isoverbascoside, and hispidulin ranging from 12.5 to 1000 µg/mL. Following 24, 48, and 72 h of treatment, an MTT solution (0.5 mg/mL in culture medium) was added to each well and incubated at 37 °C for 2 h. The metabolically active cells converted MTT into formazan crystals, which were then dissolved in 100 µL of DMSO per well. Absorbance was recorded at 550 nm using a SpectraMax 3 microplate reader (Molecular Devices, San Jose, CA, USA). The IC50 values were determined using GraphPad Prism v.7.0 (La Jolla, CA, USA). Cell viability was assessed in comparison to untreated control cells using the following equation: Cell viability %=A550sample/A550control×100%
smiles,measurement,setting,value
COc1c(O)cc2oc(-c3ccc(O)cc3)cc(=O)c2c1O [Hispidulin],toxicity comparison ratio (IC50 of RAW 264.7/IC50 of HeLa),24 h,1.0
same,toxicity comparison ratio (IC50 of RAW 264.7/IC50 of HeLa),48 h,1.0
same,toxicity comparison ratio (IC50 of RAW 264.7/IC50 of HeLa),72 h,0.6
C[C@@H]1O[C@@H](O[C@@H]2[C@@H](O)[C@H](OCCc3ccc(O)c(O)c3)O[C@H](CO)[C@H]2OC(=O)/C=C/c2ccc(O)c(O)c2)[C@H](O)[C@H](O)[C@H]1O [Verbascoside],toxicity comparison ratio (IC50 of RAW 264.7/IC50 of HeLa),24 h,1.2
same,toxicity comparison ratio (IC50 of RAW 264.7/IC50 of HeLa),48 h,1.5
same,toxicity comparison ratio (IC50 of RAW 264.7/IC50 of HeLa),72 h,1.4
